# ± gives the standard deviation of the averaged measurements. This is one part of the list.
# Assays:
# Test in all cases: NP40-soluble protein abundance relative to vehicle (solubility fold change) (ratio); higher = more soluble protein in presence of GTP
# [1] = molecular target: T1, NUF2 (UniProt Q9BZD4)
# T1 sequence (whole entry): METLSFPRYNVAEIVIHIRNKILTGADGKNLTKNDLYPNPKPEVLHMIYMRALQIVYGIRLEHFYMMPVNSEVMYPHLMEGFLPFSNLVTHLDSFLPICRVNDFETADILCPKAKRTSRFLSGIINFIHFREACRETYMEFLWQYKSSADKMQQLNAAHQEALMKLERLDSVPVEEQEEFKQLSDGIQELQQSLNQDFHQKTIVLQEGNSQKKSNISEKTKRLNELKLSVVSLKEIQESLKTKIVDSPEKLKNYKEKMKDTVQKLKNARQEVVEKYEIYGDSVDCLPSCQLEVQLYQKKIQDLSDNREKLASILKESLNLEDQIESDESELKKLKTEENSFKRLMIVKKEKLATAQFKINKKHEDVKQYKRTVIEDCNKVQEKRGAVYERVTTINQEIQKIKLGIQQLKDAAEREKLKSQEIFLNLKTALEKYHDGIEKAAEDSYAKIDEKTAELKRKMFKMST
# Outline: (§1)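 In three independent experiments, Jurkat crude lysate made by Dounce homogenisation was treated for 10 min at room temperature and then 3 min at 37 °C with eight concentrations ranging from 0.1 to 10 mM. It was then solubilised with 0.8% NP40 plus benzonase for 60 min at 4 °C and ultracentrifuged. The supernatant was TMT-labelled for LC-MS/MS, and each value is the fold change against the detergent-processed vehicle for the same replicate, using vsn-normalised intensities.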
# [2] = molecular target: T2, RUFY1 (UniProt Q96T51)
# T2 sequence (whole entry): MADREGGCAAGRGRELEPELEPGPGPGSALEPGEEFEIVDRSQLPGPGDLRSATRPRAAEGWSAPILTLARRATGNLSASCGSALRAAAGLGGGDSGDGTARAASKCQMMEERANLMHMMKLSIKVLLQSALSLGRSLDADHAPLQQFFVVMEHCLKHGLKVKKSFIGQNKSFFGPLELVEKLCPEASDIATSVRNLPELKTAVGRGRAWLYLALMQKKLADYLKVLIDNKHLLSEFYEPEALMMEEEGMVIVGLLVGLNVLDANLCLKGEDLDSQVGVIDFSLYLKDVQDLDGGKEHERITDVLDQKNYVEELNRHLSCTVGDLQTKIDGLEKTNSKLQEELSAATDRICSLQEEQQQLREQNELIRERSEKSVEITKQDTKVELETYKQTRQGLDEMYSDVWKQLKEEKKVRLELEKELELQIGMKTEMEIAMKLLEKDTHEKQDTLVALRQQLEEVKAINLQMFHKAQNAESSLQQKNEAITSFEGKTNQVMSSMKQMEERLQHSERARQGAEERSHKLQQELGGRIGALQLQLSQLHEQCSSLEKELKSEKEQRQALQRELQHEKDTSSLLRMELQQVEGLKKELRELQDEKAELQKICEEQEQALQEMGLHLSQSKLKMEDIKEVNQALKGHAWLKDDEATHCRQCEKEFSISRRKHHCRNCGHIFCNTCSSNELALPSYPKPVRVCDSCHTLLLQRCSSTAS
# Outline: as §1
# [3] = molecular target: T3, STRBP (UniProt Q96SI9)
# T3 sequence (whole entry): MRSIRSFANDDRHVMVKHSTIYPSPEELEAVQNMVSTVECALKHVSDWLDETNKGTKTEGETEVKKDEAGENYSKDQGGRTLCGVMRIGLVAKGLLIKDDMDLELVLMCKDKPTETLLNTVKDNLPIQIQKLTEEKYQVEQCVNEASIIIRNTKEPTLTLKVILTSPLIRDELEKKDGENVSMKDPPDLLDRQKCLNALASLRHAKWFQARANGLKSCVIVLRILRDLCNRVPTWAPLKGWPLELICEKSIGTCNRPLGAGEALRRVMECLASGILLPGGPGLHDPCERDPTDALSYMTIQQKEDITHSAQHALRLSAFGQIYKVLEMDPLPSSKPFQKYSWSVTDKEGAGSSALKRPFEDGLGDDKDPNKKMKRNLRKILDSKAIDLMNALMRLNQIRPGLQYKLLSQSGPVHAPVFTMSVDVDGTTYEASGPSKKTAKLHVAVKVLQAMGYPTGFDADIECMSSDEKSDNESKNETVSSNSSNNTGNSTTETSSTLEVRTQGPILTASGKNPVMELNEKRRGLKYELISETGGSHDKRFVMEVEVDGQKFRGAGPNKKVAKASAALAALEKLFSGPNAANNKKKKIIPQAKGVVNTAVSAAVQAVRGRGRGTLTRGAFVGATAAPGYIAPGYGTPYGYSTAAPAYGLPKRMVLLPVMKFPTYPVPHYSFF
# Outline: as §1
# [4] = molecular target: T4, TP53RK (UniProt Q96S44)
# T4 sequence (whole entry): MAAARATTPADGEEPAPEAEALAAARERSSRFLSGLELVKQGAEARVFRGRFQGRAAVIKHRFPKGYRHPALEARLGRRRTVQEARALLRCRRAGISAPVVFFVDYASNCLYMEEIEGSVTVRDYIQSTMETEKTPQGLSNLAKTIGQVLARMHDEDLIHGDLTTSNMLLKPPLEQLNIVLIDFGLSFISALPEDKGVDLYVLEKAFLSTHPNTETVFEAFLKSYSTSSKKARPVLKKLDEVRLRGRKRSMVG
# Outline: as §1
compound,measurement,setting,value
Nc1nc2c(ncn2[C@@H]2O[C@H](COP(=O)(O)OP(=O)(O)OP(=O)(O)O)[C@@H](O)[C@H]2O)c(=O)[nH]1 [guanosine triphosphate],NP40-soluble protein abundance,[1]; concentration: 8mM,0.963 ± 0.069
same,NP40-soluble protein abundance,[1]; concentration: 10mM,1.01 ± 0.086
same,NP40-soluble protein abundance,[2]; concentration: 0.1mM,0.955 ± 0.035
same,NP40-soluble protein abundance,[2]; concentration: 0.5mM,0.98 ± 0.019
same,NP40-soluble protein abundance,[2]; concentration: 1mM,0.918 ± 0.05
same,NP40-soluble protein abundance,[2]; concentration: 2mM,0.918 ± 0.061
same,NP40-soluble protein abundance,[2]; concentration: 4mM,0.883 ± 0.067
same,NP40-soluble protein abundance,[2]; concentration: 6mM,0.905 ± 0.062
same,NP40-soluble protein abundance,[2]; concentration: 8mM,0.874 ± 0.054
same,NP40-soluble protein abundance,[2]; concentration: 10mM,0.9 ± 0.06
same,NP40-soluble protein abundance,[3]; concentration: 0.1mM,1.04 ± 0.041
same,NP40-soluble protein abundance,[3]; concentration: 0.5mM,1.09 ± 0.039
same,NP40-soluble protein abundance,[3]; concentration: 1mM,1.08 ± 0.039
same,NP40-soluble protein abundance,[3]; concentration: 2mM,1.14 ± 0.063
same,NP40-soluble protein abundance,[3]; concentration: 4mM,1.17 ± 0.074
same,NP40-soluble protein abundance,[3]; concentration: 6mM,1.2 ± 0.083
same,NP40-soluble protein abundance,[3]; concentration: 8mM,1.19 ± 0.098
same,NP40-soluble protein abundance,[3]; concentration: 10mM,1.19 ± 0.079
same,NP40-soluble protein abundance,[4]; concentration: 0.1mM,1.01 ± 0.099
same,NP40-soluble protein abundance,[4]; concentration: 0.5mM,0.924 ± 0.079
same,NP40-soluble protein abundance,[4]; concentration: 1mM,0.95 ± 0.086
same,NP40-soluble protein abundance,[4]; concentration: 2mM,0.893 ± 0.081
same,NP40-soluble protein abundance,[4]; concentration: 4mM,0.952 ± 0.073
same,NP40-soluble protein abundance,[4]; concentration: 6mM,0.868 ± 0.09
same,NP40-soluble protein abundance,[4]; concentration: 8mM,0.904 ± 0.097
same,NP40-soluble protein abundance,[4]; concentration: 10mM,0.832 ± 0.085

# Given with bars between the fields: entries from further up.
compound | measurement | setting | value
Nc1nc2c(ncn2[C@@H]2O[C@H](COP(=O)(O)OP(=O)(O)OP(=O)(O)O)[C@@H](O)[C@H]2O)c(=O)[nH]1 [guanosine triphosphate] | NP40-soluble protein abundance | [3]; concentration: 10mM | 1.19 ± 0.079
same | NP40-soluble protein abundance | [4]; concentration: 0.1mM | 1.01 ± 0.099
